No constants are given. Whether binding was seen depends on the method and setting. Binding seen in cells or lysates may run through a third protein. Some entries that bind do so weakly or less than the wild type.
Target: FLAG-MOP-NLuc (mouse (printed as mMOP)) (UniProt P42866)
Assay: FRET or BRET; HEK293 transiently transfected with 1 μg FLAG-MOP-NLuc and 4 μg GRK2-Venus; live cells in HBSS, 37°C, 5 μM furimazine; 10 μM DAMGO or vehicle added to control or Cmpd101-pretreated (30 μM, 30 min) cells; BRET ratio of vehicle-treated cells subtracted

By UniProt entry, the sequences of proteins in these tests, tags left out.
UniProt P42866: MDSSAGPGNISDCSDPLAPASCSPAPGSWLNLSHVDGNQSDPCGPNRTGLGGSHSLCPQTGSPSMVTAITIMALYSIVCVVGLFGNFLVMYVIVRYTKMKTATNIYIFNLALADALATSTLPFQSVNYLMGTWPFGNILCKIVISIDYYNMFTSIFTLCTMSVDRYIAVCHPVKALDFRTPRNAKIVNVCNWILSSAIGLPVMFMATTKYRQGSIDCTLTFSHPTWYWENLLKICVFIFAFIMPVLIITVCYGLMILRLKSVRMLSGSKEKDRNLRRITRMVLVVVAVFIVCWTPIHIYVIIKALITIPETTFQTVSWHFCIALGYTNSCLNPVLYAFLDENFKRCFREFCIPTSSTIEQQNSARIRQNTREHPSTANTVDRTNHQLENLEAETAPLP
UniProt P25098: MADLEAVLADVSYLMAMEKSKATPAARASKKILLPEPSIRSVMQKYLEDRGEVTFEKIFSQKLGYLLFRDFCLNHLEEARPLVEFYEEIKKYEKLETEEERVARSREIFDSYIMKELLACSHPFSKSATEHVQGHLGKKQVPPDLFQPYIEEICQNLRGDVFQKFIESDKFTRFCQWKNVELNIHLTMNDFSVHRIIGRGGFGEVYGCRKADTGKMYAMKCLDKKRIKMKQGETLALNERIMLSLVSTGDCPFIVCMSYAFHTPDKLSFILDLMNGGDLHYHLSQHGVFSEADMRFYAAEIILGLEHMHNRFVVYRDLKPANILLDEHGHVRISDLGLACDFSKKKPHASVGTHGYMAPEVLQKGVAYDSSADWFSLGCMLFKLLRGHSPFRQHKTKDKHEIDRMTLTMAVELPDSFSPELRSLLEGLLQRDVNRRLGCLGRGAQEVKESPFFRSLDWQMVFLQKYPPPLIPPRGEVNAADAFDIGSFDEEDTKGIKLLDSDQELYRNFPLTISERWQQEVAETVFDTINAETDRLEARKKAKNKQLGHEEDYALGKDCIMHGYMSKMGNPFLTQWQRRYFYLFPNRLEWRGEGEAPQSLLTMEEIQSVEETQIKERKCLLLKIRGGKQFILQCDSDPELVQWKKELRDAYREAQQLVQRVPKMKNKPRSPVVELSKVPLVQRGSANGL

binding: binds
Substance: GRK2-Venus (from UniProt P25098 1-689) (enzyme)

— publication PMC6504784
